Assay results from the supplement of paper PMC4604168 (melanoma cell lines).
Some of the results follow. Single values are uncertain, as repeats are few or missing.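 The apoptosis fraction was the count of cleaved-PARP antibody-stained nuclei relative to all DNA-stained nuclei, imaged in 1,536-well plates. Screening doses were set so most cells survived, and baseline and induced cleaved-PARP levels vary greatly across cell lines.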

Assays:
Experiment in all cases: cleaved PARP positive nuclei fraction relative to DMSO control; melanoma cells; higher = more apoptosis
Details in all cases: library dose: low library concentration; 72 h
[1] = tested on: 501Mel
[2] = tested on: A101D
[3] = tested on: A2058
[4] = tested on: A375
[5] = tested on: C32
[6] = tested on: CBRC008 (line from a melanoma biopsy)
[7] = tested on: CBRC013 (line from a melanoma biopsy)
[8] = tested on: CBRC014 (line from a melanoma biopsy)
[9] = tested on: CBRC016 (line from a melanoma biopsy)
[10] = tested on: CBRC017 (line from a melanoma biopsy)

SMILES | cleaved PARP positive nuclei fraction [1] [%] | cleaved PARP positive nuclei fraction [2] [%] | cleaved PARP positive nuclei fraction [3] [%] | cleaved PARP positive nuclei fraction [4] [%] | cleaved PARP positive nuclei fraction [5] [%] | cleaved PARP positive nuclei fraction [6] [%] | cleaved PARP positive nuclei fraction [7] [%] | cleaved PARP positive nuclei fraction [8] [%] | cleaved PARP positive nuclei fraction [9] [%] | cleaved PARP positive nuclei fraction [10] [%]
N.N.[Cl][Pt][Cl] [cisplatin] + Cc1ccc(NC(=O)c2cccc(N(C)C)c2)cc1NC(=O)c1ccc(O)cc1 [ZM336372] (first compound 1.6 µM, partner dose 2 µM) | 37.6 | 94.2 | 202 | 162 | 76.5 | 145 | 86 | 145 | 157 | 116
Cn1cc(C2=C(c3cn(C4CCN(Cc5ccccn5)CC4)c4ccccc34)C(=O)NC2=O)c2ccccc21 [Enzastaurin] + C=CCn1c(=O)c2cnc(Nc3ccc(N4CCN(C)CC4)cc3)nc2n1-c1cccc(C(C)(C)O)n1 [MK1775] (first compound 0.8 µM, partner dose 0.02 µM) | 135 | 207 | 194 | 357 | 119 | 194 | 76.9 | 176 | 144 | 148
C[As](C)SC[C@H](NC(=O)CC[C@H](N)C(=O)O)C(=O)NCC(=O)O [Darinaparsin] + Cc1ccc(NC(=O)c2cccc(N(C)C)c2)cc1NC(=O)c1ccc(O)cc1 [ZM336372] (first compound 0.4 µM, partner dose 2 µM) | 171 | 42.6 | 113 | 109 | 83 | 82.2 | 84.2 | 78.7 | – | 77.9
N.N.[Cl][Pt][Cl] [cisplatin] + C=CCNC1=C2C[C@@H](C)C[C@H](OC)[C@H](O)[C@@H](C)/C=C(\C)[C@H](OC(N)=O)[C@@H](OC)/C=C\C=C(/C)C(=O)NC(=CC1=O)C2=O [Tanespimycin] (first compound 1.6 µM, partner dose 0.002 µM) | 182 | 105 | 71.3 | 120 | 80 | 95.8 | – | 104 | 133 | 85.9
Cn1cc(C2=C(c3cn(C4CCN(Cc5ccccn5)CC4)c4ccccc34)C(=O)NC2=O)c2ccccc21 [Enzastaurin] + C[C@@H]1CCN(C(=O)CC#N)C[C@@H]1N(C)c1ncnc2[nH]ccc12 [CP690550] (first compound 0.8 µM, partner dose 1 µM) | 164 | 76.8 | 137 | 51.7 | 78 | 110 | 72.3 | 68.5 | 49.6 | 71.1
C[C@]12O[C@H](C[C@]1(O)CO)n1c3ccccc3c3c4c(c5c6ccccc6n2c5c31)CNC4=O [Lestaurtinib] + NC(=O)Nc1cc(-c2cccc(F)c2)sc1C(=O)N[C@H]1CCCNC1 [AZD7762] (first compound 0.004 µM, partner dose 0.02 µM) | 179 | 97.2 | 115 | 466 | 76.8 | 202 | 71.1 | 53.6 | 123 | 105
C[C@]12O[C@H](C[C@]1(O)CO)n1c3ccccc3c3c4c(c5c6ccccc6n2c5c31)CNC4=O [Lestaurtinib] + CO[C@@H]1[C@H](N(C)C(=O)c2ccccc2)C[C@H]2O[C@]1(C)n1c3ccccc3c3c4c(c5c6ccccc6n2c5c31)C(=O)NC4 [Midostaurin] (first compound 0.004 µM, partner dose 0.08 µM) | 95.3 | 46.4 | 155 | 45.3 | 88.3 | 216 | 103 | 76.4 | 78.6 | 225
C[As](C)SC[C@H](NC(=O)CC[C@H](N)C(=O)O)C(=O)NCC(=O)O [Darinaparsin] + CC1(C)NC(=O)N(c2ccc([N+](=O)[O-])c(C(F)(F)F)c2)C1=O [nilutamide] (first compound 0.4 µM, partner dose 1 µM) | 82.3 | 78.1 | 41.7 | 155 | 88.2 | 103 | 103 | 90.5 | 88.4 | 174
N.N.[Cl][Pt][Cl] [cisplatin] + Cc1cc(N2CCOCC2)cc2[nH]c(-c3c(NC[C@@H](O)c4cccc(Cl)c4)cc[nH]c3=O)nc12 [BMS536924] (first compound 1.6 µM, partner dose 0.2 µM) | 184 | 90.2 | 155 | 320 | 97.7 | 288 | 75.8 | 117 | 139 | 136
O=C(Nc1cc(C(F)(F)F)cc(C(F)(F)F)c1)c1cc(Cl)ccc1O + N.N.[Cl][Pt][Cl] [cisplatin] (first compound 0.016 µM, partner dose 1.6 µM) | 73.6 | 166 | 302 | 43.6 | 81.2 | 169 | – | 128 | 286 | 117
